We go through one molecule from PMC11733299.

No constants are given. Whether binding was seen depends on the method and setting. In cells and extracts the contact can be indirect. Some results given as binding are weak or reduced against the parent protein; the word gives no strength. Where a sequence is shown, tags or fusion partners need not be part of it.

The target in this assay is T1, CPK1-Myc (Arabidopsis thaliana) (UniProt Q06850).
T1 sequence: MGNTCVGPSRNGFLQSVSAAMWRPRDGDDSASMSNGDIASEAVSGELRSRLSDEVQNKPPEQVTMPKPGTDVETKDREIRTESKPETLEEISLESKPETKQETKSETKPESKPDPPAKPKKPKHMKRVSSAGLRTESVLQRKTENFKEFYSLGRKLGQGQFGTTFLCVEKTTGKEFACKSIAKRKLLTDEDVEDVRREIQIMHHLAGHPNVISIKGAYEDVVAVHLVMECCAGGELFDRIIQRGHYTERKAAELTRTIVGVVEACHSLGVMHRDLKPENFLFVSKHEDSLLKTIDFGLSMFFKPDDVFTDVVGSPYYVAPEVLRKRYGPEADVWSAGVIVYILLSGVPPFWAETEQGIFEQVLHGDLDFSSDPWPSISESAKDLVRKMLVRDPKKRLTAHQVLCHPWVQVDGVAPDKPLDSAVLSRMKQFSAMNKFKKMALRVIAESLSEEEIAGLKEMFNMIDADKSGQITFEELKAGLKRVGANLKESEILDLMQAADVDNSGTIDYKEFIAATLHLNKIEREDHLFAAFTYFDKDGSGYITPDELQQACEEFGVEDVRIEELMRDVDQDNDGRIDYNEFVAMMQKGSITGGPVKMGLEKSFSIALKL
As to the kind of experiment: co-IP; co-expression in N. benthamiana leaves; extract in 150 mM NaCl, 1 mM EDTA, 0.05% NP40, 20 mM Tris-HCl pH 7.5; anti-Myc agarose 6 h at 4 °C; blots with anti-Myc and anti-Flag.

B1: CNGC9-N-Venus-Flag (domain or fragment, UniProt Q9M0A4 1-117)
chain: MLDCGKKAVKSQVISGRLEKFVRLDSMDSRYSQTSDTGLNRCTLNLQGPTRGGGAQGNNVSSGSFKKGFRKGSKGLWSIGRSIGLGVSRAVFPEDLKVSEKKIFDPQDKFLLLCNKL
For the molecule B1, the binding entry was “binds”.
